Data as given in paper PMC10565642.
These are yes or no findings as the source states them, for the method shown. Binding seen in cells or lysates may run through a third protein. Some results given as binding are weak or reduced against the parent protein; the word gives no strength. One block for each binder: values may come before it.

How the values were obtained:
[1] = target: T1, NLR family pyrin domain containing 1 (NLRP1), endogenous (human (endogenous in K562 and M-PBMCs)) (UniProt Q9C000); assay: proximity ligation; Duolink PLA on fixed, saponin-permeabilized K562 cells after erythroid differentiation; endogenous proteins; confocal microscopy
T1 sequence: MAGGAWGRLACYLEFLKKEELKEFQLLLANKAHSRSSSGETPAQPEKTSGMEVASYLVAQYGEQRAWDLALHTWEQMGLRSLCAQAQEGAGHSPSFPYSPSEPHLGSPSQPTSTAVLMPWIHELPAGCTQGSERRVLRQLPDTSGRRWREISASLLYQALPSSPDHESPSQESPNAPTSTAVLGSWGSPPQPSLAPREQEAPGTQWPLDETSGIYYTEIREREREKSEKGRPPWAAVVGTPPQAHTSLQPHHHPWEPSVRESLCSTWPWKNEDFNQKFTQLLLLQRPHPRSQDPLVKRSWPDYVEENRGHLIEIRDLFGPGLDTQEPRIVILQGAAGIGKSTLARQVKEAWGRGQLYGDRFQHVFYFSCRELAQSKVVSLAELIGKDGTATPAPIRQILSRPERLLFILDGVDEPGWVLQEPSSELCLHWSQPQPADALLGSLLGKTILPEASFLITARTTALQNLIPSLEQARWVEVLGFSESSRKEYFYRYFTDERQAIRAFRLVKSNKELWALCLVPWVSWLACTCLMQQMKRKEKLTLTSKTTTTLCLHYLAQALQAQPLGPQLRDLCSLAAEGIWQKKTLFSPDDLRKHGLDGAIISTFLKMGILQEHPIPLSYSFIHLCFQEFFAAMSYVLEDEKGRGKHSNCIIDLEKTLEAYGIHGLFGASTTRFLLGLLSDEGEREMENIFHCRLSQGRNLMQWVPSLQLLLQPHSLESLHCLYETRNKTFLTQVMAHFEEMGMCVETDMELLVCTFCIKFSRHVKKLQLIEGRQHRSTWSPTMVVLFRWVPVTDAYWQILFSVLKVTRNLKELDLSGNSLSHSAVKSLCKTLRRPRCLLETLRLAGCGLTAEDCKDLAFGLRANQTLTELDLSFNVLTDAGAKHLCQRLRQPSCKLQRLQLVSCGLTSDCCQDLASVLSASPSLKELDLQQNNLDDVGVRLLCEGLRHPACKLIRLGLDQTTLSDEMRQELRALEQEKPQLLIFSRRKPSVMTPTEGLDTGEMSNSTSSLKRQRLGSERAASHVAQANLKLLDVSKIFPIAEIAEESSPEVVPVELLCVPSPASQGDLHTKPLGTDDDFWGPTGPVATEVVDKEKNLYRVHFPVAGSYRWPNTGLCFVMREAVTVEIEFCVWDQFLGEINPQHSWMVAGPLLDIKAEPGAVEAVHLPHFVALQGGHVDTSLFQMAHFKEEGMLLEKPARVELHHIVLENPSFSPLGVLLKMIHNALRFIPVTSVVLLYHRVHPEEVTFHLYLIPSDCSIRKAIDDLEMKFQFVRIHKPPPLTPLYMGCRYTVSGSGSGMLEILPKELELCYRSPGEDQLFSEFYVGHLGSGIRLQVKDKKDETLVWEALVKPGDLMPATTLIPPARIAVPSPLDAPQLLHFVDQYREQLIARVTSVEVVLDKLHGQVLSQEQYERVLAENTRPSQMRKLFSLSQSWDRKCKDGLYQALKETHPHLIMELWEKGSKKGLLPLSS

[2] = target: T1, NLR family pyrin domain containing 1 (NLRP1), endogenous (human (endogenous in K562 and M-PBMCs)); assay: co-IP; endogenous proteins in M-PBMCs (mobilized human peripheral blood mononuclear cells)
[3] = target: T1, NLR family pyrin domain containing 1 (NLRP1), endogenous (human (endogenous in K562 and M-PBMCs)); assay: co-IP; endogenous proteins immunoprecipitated from K562 cells after erythroid differentiation
[4] = target: T2, LRR Binding FLII Interacting Protein 1 (LRRFIP1), endogenous (human (endogenous in K562 and M-PBMCs)) (UniProt Q32MZ4); assay: as above
T2 sequence: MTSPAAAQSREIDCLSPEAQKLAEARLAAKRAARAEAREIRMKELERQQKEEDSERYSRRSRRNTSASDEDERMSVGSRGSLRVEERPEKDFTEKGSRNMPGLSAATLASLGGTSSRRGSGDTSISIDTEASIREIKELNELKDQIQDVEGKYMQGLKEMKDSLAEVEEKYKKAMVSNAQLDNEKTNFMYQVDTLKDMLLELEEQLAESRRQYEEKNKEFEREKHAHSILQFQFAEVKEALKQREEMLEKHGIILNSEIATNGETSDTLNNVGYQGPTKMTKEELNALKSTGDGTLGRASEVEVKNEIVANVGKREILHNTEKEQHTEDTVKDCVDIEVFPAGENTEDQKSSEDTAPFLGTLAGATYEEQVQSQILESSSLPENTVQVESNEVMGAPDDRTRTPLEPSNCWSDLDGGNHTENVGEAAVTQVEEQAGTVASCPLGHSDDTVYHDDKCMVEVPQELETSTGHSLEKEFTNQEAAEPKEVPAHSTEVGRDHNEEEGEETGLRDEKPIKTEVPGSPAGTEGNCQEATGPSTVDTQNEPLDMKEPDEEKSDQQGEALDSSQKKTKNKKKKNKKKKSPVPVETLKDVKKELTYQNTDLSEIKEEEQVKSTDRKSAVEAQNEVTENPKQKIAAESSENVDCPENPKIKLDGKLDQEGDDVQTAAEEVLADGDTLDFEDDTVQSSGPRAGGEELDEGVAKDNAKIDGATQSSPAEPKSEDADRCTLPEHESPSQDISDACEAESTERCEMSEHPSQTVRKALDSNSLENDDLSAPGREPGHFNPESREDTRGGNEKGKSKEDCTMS

binding [1]: binds
binding [2]: binds
binding [3]: binds
B1: LRR Binding FLII Interacting Protein 1 (LRRFIP1), endogenous (protein, UniProt Q32MZ4 1-808)
chain: T2 sequence

binding [4]: binds
B2: NLR family pyrin domain containing 1 (NLRP1), endogenous (protein, UniProt Q9C000 1-1473)
chain: T1 sequence
